Compound in assay [1]: T1, CC[C@@H](C)Nc1cc(C(=O)N[C@H]2C[C@H]3CC[C@@H](C2)N3c2ccc(C(=O)C3CC3)cn2)c(C)cc1C(N)=O [XL888]
Description: phosphopeptide melting temperature shift (XL888 minus DMSO); higher = stabilised by drug treatment. The note with it: 100 µM; treatment time 2 h; layout: intact cells; SK-Mel 28. Here is the method: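 Phospho-TPP in intact SK-Mel 28 cells treated with 100 uM XL888 or DMSO for 2 h, heated at 10 temperatures (37-67 C) for 3 min, soluble fraction TMT10plex-labelled and TiO2 phospho-enriched. Melting curves were fitted per phosphopeptide; the value is the melting point difference (drug minus vehicle) in each of two biological replicates.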

Protein sequences, listed by entry. Tags and fused reporters are not part of them. Lines headed by an entry give the natural chain unless they say otherwise; changes in a name come on top.
UniProt O60841: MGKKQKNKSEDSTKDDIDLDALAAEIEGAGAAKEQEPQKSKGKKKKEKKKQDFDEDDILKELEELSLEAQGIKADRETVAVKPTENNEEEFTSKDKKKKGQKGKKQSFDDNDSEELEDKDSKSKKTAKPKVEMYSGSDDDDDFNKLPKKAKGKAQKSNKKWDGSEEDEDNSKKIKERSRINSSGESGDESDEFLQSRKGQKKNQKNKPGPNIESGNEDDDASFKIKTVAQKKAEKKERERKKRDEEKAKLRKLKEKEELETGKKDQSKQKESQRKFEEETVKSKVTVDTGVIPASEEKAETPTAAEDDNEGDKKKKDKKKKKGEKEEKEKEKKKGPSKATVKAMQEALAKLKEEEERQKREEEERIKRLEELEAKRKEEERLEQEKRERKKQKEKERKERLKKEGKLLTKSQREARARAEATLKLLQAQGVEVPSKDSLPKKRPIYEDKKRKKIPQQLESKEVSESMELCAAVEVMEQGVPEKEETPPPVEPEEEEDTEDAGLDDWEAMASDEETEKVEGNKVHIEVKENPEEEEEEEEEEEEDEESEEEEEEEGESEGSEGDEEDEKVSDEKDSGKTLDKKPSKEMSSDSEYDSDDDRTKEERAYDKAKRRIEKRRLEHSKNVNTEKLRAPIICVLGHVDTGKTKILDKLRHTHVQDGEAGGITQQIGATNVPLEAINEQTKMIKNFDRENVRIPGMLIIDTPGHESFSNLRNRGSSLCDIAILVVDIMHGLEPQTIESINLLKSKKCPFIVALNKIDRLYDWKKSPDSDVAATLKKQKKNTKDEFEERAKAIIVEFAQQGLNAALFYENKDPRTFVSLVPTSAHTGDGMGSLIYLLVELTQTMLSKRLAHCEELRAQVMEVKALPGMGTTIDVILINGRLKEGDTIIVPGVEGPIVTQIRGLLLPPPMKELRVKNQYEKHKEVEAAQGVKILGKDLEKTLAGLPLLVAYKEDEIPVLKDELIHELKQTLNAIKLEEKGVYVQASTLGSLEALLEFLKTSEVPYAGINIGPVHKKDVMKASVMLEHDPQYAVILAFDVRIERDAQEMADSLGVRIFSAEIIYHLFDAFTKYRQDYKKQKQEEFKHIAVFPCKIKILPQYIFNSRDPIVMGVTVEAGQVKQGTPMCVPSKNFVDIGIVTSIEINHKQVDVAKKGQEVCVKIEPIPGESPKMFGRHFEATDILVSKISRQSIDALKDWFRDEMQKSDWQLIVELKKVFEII
UniProt Q765P7: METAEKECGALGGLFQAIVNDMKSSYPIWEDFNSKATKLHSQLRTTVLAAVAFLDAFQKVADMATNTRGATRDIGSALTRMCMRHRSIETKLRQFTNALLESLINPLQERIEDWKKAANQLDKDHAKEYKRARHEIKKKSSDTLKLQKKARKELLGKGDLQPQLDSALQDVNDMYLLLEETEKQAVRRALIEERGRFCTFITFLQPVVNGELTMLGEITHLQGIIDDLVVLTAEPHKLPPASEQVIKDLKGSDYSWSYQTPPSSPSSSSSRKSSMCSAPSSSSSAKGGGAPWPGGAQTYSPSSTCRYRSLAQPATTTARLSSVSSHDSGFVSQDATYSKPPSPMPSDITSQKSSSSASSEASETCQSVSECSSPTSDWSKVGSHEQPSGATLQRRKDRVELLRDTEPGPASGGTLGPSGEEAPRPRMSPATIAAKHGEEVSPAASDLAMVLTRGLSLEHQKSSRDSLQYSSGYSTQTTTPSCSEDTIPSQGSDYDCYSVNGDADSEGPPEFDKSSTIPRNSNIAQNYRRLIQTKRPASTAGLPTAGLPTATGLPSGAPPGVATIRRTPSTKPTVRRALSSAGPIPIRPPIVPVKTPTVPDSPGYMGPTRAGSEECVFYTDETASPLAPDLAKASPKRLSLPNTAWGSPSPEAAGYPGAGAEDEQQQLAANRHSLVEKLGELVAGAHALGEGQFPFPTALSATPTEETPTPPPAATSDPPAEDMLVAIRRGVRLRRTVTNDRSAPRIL
UniProt Q9NW82: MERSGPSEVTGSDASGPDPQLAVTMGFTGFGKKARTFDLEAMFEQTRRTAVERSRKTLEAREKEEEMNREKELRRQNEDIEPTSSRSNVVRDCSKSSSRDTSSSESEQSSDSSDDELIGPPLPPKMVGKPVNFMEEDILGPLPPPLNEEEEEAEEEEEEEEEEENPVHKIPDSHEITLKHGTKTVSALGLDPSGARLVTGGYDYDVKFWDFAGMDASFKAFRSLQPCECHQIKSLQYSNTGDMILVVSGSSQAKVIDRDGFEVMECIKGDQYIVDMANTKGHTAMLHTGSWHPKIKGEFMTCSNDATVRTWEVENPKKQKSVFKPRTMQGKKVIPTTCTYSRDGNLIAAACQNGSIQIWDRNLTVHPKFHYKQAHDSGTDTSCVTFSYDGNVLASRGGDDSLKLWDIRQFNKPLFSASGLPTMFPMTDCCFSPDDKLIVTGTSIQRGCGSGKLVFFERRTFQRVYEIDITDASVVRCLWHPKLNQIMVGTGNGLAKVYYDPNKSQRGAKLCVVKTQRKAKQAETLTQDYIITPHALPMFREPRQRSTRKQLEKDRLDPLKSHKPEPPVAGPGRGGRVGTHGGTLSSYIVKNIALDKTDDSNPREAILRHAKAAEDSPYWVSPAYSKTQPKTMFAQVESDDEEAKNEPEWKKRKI
UniProt P08559, whole entry, looked up: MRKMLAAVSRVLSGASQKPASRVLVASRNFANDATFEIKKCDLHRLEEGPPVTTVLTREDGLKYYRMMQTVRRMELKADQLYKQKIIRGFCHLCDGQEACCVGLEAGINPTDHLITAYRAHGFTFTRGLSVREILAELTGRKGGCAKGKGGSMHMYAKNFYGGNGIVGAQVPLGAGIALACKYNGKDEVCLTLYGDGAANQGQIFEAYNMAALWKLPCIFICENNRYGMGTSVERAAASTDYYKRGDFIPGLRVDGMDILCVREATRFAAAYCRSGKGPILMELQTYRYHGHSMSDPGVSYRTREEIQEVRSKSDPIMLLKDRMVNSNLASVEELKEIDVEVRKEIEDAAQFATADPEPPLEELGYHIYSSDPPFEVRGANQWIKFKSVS
UniProt P04792, whole entry: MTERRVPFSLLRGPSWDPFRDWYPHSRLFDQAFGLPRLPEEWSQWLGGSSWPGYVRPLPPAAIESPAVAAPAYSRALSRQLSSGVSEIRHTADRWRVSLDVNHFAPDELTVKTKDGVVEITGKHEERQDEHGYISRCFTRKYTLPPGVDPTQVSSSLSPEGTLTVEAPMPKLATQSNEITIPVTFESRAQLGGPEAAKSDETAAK
UniProt P16383: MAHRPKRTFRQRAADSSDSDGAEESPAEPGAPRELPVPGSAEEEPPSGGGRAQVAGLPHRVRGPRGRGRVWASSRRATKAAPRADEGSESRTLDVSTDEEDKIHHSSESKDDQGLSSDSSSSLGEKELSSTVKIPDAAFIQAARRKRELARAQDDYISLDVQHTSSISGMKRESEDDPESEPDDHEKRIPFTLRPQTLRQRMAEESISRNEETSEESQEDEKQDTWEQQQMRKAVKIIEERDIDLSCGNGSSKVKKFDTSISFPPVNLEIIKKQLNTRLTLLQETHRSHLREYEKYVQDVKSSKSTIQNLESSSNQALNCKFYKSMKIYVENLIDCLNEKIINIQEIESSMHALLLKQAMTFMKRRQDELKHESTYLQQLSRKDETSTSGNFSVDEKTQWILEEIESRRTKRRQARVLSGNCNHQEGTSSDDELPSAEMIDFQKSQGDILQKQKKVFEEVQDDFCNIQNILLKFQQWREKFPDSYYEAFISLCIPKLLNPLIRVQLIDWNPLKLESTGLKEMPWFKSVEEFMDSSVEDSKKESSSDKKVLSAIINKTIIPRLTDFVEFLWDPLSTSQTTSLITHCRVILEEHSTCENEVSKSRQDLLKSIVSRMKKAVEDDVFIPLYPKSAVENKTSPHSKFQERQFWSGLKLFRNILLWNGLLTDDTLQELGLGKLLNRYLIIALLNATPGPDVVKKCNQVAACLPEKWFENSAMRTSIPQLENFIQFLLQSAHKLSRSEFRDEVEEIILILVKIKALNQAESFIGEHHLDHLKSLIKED
UniProt Q9BV36: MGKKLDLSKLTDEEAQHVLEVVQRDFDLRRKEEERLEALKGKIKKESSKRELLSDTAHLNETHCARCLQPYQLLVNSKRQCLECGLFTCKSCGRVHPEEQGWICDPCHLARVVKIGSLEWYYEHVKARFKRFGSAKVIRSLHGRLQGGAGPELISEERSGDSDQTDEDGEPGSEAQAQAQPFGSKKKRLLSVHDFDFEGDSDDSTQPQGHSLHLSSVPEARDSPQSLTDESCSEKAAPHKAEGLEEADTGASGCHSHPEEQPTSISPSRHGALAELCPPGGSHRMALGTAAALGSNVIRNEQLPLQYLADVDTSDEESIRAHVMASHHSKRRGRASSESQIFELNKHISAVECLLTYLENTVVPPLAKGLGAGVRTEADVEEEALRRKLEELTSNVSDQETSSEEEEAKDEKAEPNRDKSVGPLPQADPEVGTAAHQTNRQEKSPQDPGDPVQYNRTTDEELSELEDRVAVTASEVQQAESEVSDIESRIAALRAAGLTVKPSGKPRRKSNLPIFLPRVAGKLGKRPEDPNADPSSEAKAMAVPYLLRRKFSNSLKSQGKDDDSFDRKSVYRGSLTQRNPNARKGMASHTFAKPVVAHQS
UniProt Q99733: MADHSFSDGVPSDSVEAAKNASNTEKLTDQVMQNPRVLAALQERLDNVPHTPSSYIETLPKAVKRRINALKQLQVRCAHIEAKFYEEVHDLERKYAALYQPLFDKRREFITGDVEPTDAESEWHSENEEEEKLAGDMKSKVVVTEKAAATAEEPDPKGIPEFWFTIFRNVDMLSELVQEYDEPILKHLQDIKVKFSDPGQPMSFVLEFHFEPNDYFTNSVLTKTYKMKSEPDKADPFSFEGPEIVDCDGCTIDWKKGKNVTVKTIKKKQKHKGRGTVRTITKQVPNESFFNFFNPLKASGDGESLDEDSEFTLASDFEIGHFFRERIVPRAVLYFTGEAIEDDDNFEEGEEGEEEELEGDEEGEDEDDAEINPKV
UniProt O15085: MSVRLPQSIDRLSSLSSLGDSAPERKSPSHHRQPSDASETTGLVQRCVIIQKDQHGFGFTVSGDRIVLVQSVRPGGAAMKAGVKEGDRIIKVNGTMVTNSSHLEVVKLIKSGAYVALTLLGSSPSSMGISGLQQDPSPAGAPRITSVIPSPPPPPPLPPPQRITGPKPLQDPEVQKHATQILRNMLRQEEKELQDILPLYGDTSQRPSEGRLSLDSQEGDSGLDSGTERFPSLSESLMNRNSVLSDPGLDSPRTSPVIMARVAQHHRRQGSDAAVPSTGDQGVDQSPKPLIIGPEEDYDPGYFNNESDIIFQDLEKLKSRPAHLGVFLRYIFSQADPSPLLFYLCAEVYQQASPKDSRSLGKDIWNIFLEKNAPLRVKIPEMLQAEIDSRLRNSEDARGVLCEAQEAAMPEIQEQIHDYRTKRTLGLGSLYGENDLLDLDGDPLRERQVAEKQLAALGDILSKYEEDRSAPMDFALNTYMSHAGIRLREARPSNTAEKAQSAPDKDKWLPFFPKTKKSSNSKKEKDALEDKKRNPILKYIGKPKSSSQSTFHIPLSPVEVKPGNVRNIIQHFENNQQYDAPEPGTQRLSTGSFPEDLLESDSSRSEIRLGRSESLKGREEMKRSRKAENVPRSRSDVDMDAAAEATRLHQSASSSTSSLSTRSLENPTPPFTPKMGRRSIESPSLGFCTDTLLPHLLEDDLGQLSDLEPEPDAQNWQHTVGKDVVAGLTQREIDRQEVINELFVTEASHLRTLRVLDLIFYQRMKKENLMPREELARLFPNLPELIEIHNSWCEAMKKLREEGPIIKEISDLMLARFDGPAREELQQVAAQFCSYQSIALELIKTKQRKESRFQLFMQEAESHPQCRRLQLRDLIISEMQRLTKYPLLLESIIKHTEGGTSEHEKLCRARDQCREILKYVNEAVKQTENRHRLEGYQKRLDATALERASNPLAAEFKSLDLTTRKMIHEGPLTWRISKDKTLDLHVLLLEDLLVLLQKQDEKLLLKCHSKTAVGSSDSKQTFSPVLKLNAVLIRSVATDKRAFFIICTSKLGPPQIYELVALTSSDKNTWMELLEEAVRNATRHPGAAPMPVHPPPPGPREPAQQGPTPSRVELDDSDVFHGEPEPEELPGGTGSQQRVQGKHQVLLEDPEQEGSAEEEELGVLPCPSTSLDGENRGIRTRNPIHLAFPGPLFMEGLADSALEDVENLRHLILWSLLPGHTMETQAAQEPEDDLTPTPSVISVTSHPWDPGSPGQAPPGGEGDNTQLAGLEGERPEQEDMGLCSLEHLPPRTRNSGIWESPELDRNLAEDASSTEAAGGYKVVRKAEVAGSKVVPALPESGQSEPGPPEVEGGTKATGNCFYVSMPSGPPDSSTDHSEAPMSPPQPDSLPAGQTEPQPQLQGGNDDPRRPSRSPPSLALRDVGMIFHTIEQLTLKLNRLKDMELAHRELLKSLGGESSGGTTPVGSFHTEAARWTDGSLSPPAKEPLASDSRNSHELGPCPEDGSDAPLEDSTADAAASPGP

Compound in assay [2]: T1, XL888
The assay is described as above. The note with it: 100 µM; treatment time 2 h; layout: intact cells; SK-Mel 24. As to the method:
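Phospho-TPP in intact SK-Mel 24 cells treated with 100 uM XL888 or DMSO for 2 h, heated at 10 temperatures (37-67 C) for 3 min, soluble fraction TMT10plex-labelled and TiO2 phospho-enriched. Melting curves were fitted per phosphopeptide; the value is the melting point difference (drug minus vehicle) in each of two biological replicates.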

The results in this text go back to the supplement of paper PMC5836539.

± gives the standard deviation of the averaged measurements. Single values are uncertain here, since repeats match poorly.

For “CARHSP1 phosphosite_30 (phosphosite position: 30) (UniProt Q9Y2V2)”, the “phosphopeptide melting temperature shift” value was -1.77 ± 2.9 °C with XL888 [1] and -1.01 °C with XL888 [2].
Taken in the same sequence, the figures for “UniProt Q8ND56-2_phosphosite_183 (phosphosite position: 183)” were -0.278 ± 0.14 °C and 0.183 ± 1 °C.
On the same counts, the results for “MAP1B phosphosite_1915 (phosphosite position: 1915) (UniProt P46821)” are 1.64 ± 1 °C and 0.093 °C.
On the same counts, the results for “HDGF phosphosite_165 (phosphosite position: 165) (UniProt P51858)” are 2.14 °C and 1.14 ± 0.35 °C.
Consider “EIF5B phosphosite_214 (phosphosite position: 214) (UniProt O60841)”, for which the figures for the “phosphopeptide melting temperature shift” value with XL888 [1] and with XL888 [2] were 0.604 ± 0.15 °C and 0.103 °C, respectively.
On the same counts, the results for “UniProt Q7Z6E9-2_phosphosite_1294 (phosphosite position: 1294)” are 2.29 °C and 0.215 °C.
Taken in the same sequence, the figures for “UniProt O60502-3_phosphosite_364 (phosphosite position: 364)” were 0.692 ± 0.53 °C and 1.34 °C.
For the target “UniProt Q765P7_phosphosite_612 (phosphosite position: 612)”, the results for the “phosphopeptide melting temperature shift” value in the assay with XL888 [1] and in the assay with XL888 [2] were 2.88 °C and 0.515 °C, respectively.
On to “ZCCHC8 phosphosite_427 (phosphosite position: 427) (UniProt Q6NZY4)”, for which the “phosphopeptide melting temperature shift” value in the assay with XL888 [1] was 0.473 ± 1.6 °C; in the assay with XL888 [2] it was 0.0318 °C.
On the same counts, the results for “SRRM1 phosphosite_675 (phosphosite position: 675) (UniProt Q8IYB3)” are 0.732 °C and 1.68 °C.
Taken in the same sequence, the figures for “UniProt Q16637-4_phosphosite_28 (phosphosite position: 28)” were 1.57 ± 1.6 °C and 0.086 °C.
On the same counts, the results for “WDR70 phosphosite_638 (phosphosite position: 638) (UniProt Q9NW82)” are -0.000965 °C and 0.341 °C.
For “PPFIBP2 phosphosite_387 (phosphosite position: 387) (UniProt Q8ND30)”, the “phosphopeptide melting temperature shift” value with XL888 [1] came to 0.622 ± 0.15 °C; with XL888 [2] it was 0.354 ± 0.053 °C.
Taken in the same sequence, the figures for “UniProt Q86W92-2_phosphosite_573 (phosphosite position: 573)” were 1.31 ± 0.38 °C and 0.34 °C.
On the same counts, the results for “UniProt P08559-3_phosphosite_262 (phosphosite position: 262)” are 1.48 ± 2.9 °C and 0.205 ± 0.47 °C.
On the same counts, the results for “HSPB1 phosphosite_82 (phosphosite position: 82) (UniProt P04792)” are 2.71 °C and 0.631 °C.
As for “UniProt Q92974-3_phosphosite_858 (phosphosite position: 858)”, the results for the “phosphopeptide melting temperature shift” value with XL888 [1] and with XL888 [2] were -1.03 ± 1.3 °C and -1.08 °C, respectively.
On the same counts, the results for “UniProt P16383_phosphosite_180 (phosphosite position: 180)” are 0.097 ± 1.9 °C and -0.0996 °C.
On the same counts, the results for “UniProt P62258_phosphosite_210 (phosphosite position: 210)” are -0.156 ± 0.2 °C and 0.714 °C.
On the same counts, the results for “UniProt Q9BV36_phosphosite_337 (phosphosite position: 337)” are 1.3 ± 0.42 °C and 1.61 °C.
Take “DBN1 phosphosite_142 (phosphosite position: 142) (UniProt Q16643)”: the “phosphopeptide melting temperature shift” value in the assay with XL888 [1] is 0.834 ± 1.3 °C; with XL888 [2], -0.863 °C.
Taken in the same sequence, the figures for “UniProt Q14155-1_phosphosite_340 (phosphosite position: 340)” were 0.241 °C and -1.46 °C.
On to “SRRM1 phosphosite_874 (phosphosite position: 874) (UniProt Q8IYB3)”, for which the “phosphopeptide melting temperature shift” value is -0.285 ± 0.48 °C in the assay with XL888 [1] and -0.947 °C with XL888 [2].
Taken in the same sequence, the figures for “UniProt P08651-4_phosphosite_290 (phosphosite position: 290)” were -0.0174 °C and 0.61 °C.
Taken in the same sequence, the figures for “UniProt Q96JG6_phosphosite_559 (phosphosite position: 559)” were 0.259 ± 0.9 °C and 0.0263 °C.
On the same counts, the results for “NAP1L4 phosphosite_125 (phosphosite position: 125) (UniProt Q99733)” are 0.378 ± 0.85 °C and 0.0447 ± 0.098 °C.
“ARHGEF11 phosphosite_271 (phosphosite position: 271) (UniProt O15085)”: the “phosphopeptide melting temperature shift” value with XL888 [1] came to 0.7 ± 1.3 °C; with XL888 [2], 0.96 °C.
On the same counts, the results for “TCEA1 phosphosite_100 (phosphosite position: 100) (UniProt P23193)” are 0.812 ± 0.34 °C and 0.841 °C.
On the same counts, the results for “UniProt O75382-3_phosphosite_7 (phosphosite position: 7)” are 0.623 ± 0.54 °C and 0.287 ± 0.63 °C.
On the same counts, the results for “MCM2 phosphosite_139 (phosphosite position: 139) (UniProt P49736)” are -0.25 ± 0.069 °C and -0.589 ± 0.046 °C.
For the target “MAP1B phosphosite_1016 (phosphosite position: 1016) (UniProt P46821)”, the “phosphopeptide melting temperature shift” value was determined as 1.21 ± 0.24 °C with XL888 [1] and 1.69 °C with XL888 [2].
On the same counts, the results for “UniProt Q6ICG6-3_phosphosite_259 (phosphosite position: 259)” are 0.811 °C and 1.49 °C.
On the same counts, the results for “UniProt Q13045-2_phosphosite_381 (phosphosite position: 381)” are 0.367 ± 0.5 °C and -0.57 °C.
On the same counts, the results for “UniProt Q9H6Z4-3_phosphosite_40 (phosphosite position: 40)” are 2.19 ± 0.35 °C and -1.19 °C.
With “UniProt Q9NRY4_phosphosite_1179 (phosphosite position: 1179)”, the entries for the “phosphopeptide melting temperature shift” value in the assay with XL888 [1] and in the assay with XL888 [2] were 0.0365 ± 1.1 °C and -0.877 °C, respectively.
On the same counts, the results for “UniProt Q96P48-3_phosphosite_229 (phosphosite position: 229)” are -1.14 °C and 2.07 °C.
Taken in the same sequence, the figures for “UniProt Q5T4S7-3_phosphosite_2730 (phosphosite position: 2730)” were 0.519 °C and 1 ± 1 °C.
